For one compound, Ki results are on record in paper PMC7782162, “Inhibition of the β-carbonic anhydrase from the protozoan pathogen Trichomonas vaginalis with sulphonamides” (Journal of Enzyme Inhibition and Medicinal Chemistry, 2020).

Bounds are passed on as bounds.

The target in this test is T1, TvaCA1 (Trichomonas vaginalis, UniProt A2ENQ8).
T1 construct: gene TVAG_005270; recombinant from E. coli BL21 Star (DE3), Ni2+-NTA purified; beta-CA homodimer with two active sites
T1 sequence (A2ENQ8 1-182): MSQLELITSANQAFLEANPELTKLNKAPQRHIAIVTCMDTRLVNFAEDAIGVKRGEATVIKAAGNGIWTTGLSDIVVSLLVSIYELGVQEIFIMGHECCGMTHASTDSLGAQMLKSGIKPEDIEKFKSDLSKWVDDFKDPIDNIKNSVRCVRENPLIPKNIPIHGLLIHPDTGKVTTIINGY
Briefly: stopped-flow CO2 hydrase assay. Format: biochemical. The note with it: read-out: KI^a (nM) / TvaCA1^c.

Regarding `CCN[C@H]1C[C@H](C)S(=O)(=O)c2sc(S(N)(=O)=O)cc21` [DZA, Dorzolamide], the Ki was above 50000 nM.
